The text below walks through data of article PMC9701038.

Protein sequences, listed by entry. Tags and fused reporters are not part of them.
UniProt Q71RC2: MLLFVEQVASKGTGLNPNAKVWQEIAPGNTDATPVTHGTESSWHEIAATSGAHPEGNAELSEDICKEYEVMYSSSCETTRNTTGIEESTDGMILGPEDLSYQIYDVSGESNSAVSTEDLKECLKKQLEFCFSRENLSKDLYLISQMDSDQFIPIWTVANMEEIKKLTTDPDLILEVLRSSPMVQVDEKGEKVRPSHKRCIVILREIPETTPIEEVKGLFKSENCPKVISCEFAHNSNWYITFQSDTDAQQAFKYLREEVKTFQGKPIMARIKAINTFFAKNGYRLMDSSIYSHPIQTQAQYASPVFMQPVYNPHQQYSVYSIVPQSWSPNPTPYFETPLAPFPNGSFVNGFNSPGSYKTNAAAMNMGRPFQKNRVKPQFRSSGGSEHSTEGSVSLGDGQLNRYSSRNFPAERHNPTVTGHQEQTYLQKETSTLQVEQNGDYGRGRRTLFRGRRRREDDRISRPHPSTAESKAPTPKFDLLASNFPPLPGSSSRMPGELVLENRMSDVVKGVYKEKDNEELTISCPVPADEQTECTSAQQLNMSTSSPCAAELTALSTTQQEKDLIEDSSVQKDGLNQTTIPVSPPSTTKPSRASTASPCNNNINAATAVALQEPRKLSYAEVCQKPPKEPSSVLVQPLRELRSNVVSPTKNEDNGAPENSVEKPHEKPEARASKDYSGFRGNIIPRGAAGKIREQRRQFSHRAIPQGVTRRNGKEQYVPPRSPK
UniProt Q92615: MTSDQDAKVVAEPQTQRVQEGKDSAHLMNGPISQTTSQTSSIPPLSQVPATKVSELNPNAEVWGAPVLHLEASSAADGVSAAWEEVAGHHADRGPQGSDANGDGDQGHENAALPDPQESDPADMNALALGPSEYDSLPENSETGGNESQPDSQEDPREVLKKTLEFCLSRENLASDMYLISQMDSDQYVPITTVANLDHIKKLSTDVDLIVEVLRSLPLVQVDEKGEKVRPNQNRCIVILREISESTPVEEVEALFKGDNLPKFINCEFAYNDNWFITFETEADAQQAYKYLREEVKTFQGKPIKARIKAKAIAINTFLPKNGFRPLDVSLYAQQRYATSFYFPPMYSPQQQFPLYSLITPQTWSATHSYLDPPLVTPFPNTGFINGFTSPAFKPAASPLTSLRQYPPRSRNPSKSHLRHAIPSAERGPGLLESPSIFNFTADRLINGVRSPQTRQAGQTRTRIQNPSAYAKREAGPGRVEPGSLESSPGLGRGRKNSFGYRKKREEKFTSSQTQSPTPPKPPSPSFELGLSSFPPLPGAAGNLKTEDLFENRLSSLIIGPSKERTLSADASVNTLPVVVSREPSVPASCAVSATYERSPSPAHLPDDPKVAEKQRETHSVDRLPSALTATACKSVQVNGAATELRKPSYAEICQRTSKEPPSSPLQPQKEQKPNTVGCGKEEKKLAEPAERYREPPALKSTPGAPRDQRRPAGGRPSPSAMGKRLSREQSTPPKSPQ

These are yes or no findings as the source states them, for the method shown. In cells and extracts the contact can be indirect. Some results given as binding are weak or reduced against the parent protein; the word gives no strength.

The target in test [1] is T1, endogenous HOGA1 (human (endogenous in BxPC-3)) (UniProt Q86XE5).
T1 sequence: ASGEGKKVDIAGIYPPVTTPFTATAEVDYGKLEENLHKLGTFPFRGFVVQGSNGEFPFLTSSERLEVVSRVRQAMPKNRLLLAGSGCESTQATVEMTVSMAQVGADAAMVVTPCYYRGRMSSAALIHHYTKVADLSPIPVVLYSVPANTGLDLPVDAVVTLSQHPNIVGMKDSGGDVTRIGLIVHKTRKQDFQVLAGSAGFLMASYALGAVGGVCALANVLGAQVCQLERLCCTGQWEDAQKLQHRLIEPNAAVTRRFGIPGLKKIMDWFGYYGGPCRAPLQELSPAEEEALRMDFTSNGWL
In words: co-IP; endogenous HOGA1 and endogenous LARPs in BxPC-3 cells; precipitating antibody not stated.

The target of a further test is T2, exogenous HOGA1 (human) (UniProt Q86XE5).
T2 sequence: T1 sequence
In words: co-IP; exogenous tagged HOGA1 and LARPs in PANC-1 cells; lysis in 0.5% NP-40 buffer (50 mM Tris-HCl pH 7.5, 150 mM NaCl, 0.3% NONIDET P-40); Flag beads 3 h at 4 C; SDS-PAGE and western blot.

As for “endogenous LARP4 (from UniProt Q71RC2 1-724)”, the binding result in test [1] was “binds”. For “endogenous LARP4B (from UniProt Q92615 1-738)”, the binding entry in test [1] was “binds”. Consider “exogenous LARP4 (from UniProt Q71RC2 1-724)”, for which the binding result in the test with exogenous HOGA1 (human) was “binds”. Same read-out and setting: to “exogenous LARP4B (from UniProt Q92615 1-738)” belongs “binds”.

B1: endogenous LARP7 (protein, UniProt Q4G0J3 1-582)
chain: METESGNQEKVMEEESTEKKKEVEKKKRSRVKQVLADIAKQVDFWFGDANLHKDRFLREQIEKSRDGYVDISLLVSFNKMKKLTTDGKLIARALRSSAVVELDLEGTRIRRKKPLGERPKDEDERTVYVELLPKNVNHSWIERVFGKCGNVVYISIPHYKSTGDPKGFAFVEFETKEQAAKAIEFLNNPPEEAPRKPGIFPKTVKNKPIPALRVVEEKKKKKKKKGRMKKEDNIQAKEENMDTSNTSISKMKRSRPTSEGSDIESTEPQKQCSKKKKKRDRVEASSLPEVRTGKRKRSSSEDAESLAPRSKVKKIIQKDIIKEASEASKENRDIEISTEEEKDTGDLKDSSLLKTKRKHKKKHKERHKMGEEVIPLRVLSKSEWMDLKKEYLALQKASMASLKKTISQIKSESEMETDSGVPQNTGMKNEKTANREECRTQEKVNATGPQFVSGVIVKIISTEPLPGRKQVRDTLAAISEVLYVDLLEGDTECHARFKTPEDAQAVINAYTEINKKHCWKLEILSGDHEQRYWQKILVDRQAKLNQPREKKRGTEKLITKAEKIRLAKTQQASKHIRFSEYD
Consider B1, for which, in test [1], the binding entry is given as “binds”.
